# In paper PMC5004264, “The pesticidal Cry6Aa toxin from Bacillus thuringiensis is structurally similar to HlyE-family alpha pore-forming toxins” (BMC Biology, 2016):
# Results are given in words; binding and its absence hold for the method and conditions named.
# B1: Cry6Aa trypsin-resistant core (complex, UniProt Q45757 12-390)
# chain 1: HSLIHTIKLNSNKKYGPGDMTNGNQFIISKQEWATIGAYIQTGLGLPVNEQQLRTHVNLSQDISIPSDFSQLYDVYCSDKTSAEWWNKNLYPLIIKSANDIASYGFKVAGDPSIKKDGYFKKLQDELDNIVDNNSDDDAIAKAIKDFKARCGILIKEAKQYEEAAKNIVTSLDQFLHGDQKKLEGVINIQKRLKEVQTALNQAHGESSPAHKELLEKVKNLKTTLERTIKAEQDLEKKVEYSFLLGPLLGFVVYEILENTAVQHIKNQIDEIKKQLDSAQHDLDRDVKIIGMLNSINTDIDNLYSQGQEAIKVFQKLQGIWATIGAQIENLRTTSLQEVQDSDDADEIQIELEDASDAWLVVAQEARDFTLNAYSTNSR
# chain 2: NSNLEYKCPENNFMIYWYNNSDWYNNSDWYNN
# Molecular target: Cry6Aa trypsin-resistant core (Bacillus thuringiensis) (UniProt Q45757)
# Assay: crystal structure; trypsin-resistant core, 100 mg/ml, 20 % (w/v) PEG 1000, 0.1 M sodium phosphate dibasic/citric acid pH 4.2, 0.2 M lithium sulfate; 2.0 A; both purified
binder,measurement,value
B1,binding,no binding
